Results as given in paper doi:10.1101/2023.07.09.548245.
Results are given in words; binding and its absence hold for the method and conditions named. Some binding calls cover weakened binding; strength is not graded here.

Chains of the proteins cited; added tags and fusions are not shown. Residues count along the entry.
UniProt P80098, residues 24-99: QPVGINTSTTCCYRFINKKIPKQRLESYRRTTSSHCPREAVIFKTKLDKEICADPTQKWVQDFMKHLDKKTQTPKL

Biological target: T1, Truncated DARC (27-322) for HDX-MS (human) (UniProt Q4VBN9)
T1 sequence (chain, free cysteines blocked with iodoacetamide; glycosylation removed with PNGase): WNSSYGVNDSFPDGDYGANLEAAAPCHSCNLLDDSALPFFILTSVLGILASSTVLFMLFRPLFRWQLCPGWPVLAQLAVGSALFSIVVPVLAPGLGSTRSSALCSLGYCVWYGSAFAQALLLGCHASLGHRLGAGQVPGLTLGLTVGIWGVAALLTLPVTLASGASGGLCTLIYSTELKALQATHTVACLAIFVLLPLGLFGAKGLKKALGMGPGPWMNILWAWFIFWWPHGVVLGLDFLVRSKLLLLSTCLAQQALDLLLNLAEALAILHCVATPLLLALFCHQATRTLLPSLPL
Experiment: HDX-MS

## Recombinant human CCL7 (from UniProt P80098 24-99) (ligand)
  binding: binds
